This continues a long series; more values of the same kind are listed elsewhere.
Tests used:
Type in all cases: cell-based
Conditions in all cases: U-87MG ATCC
[1] = Inhibition of RTK/PI3K/AKT/mTOR signaling in human U87 cells assessed as down regulation of ETS1 gene expression at cytotoxic IC50 measured after 48 hrs relative to control
[2] = Inhibition of RTK/PI3K/AKT/mTOR signaling in human U87 cells assessed as down regulation of ZFAND2A gene expression at cytotoxic IC50 measured after 48 hrs relative to control
[3] = Inhibition of RTK/PI3K/AKT/mTOR signaling in human U87 cells assessed as down regulation of SAE1 gene expression at cytotoxic IC50 measured after 48 hrs relative to control
[4] = Inhibition of RTK/PI3K/AKT/mTOR signaling in human U87 cells assessed as up regulation of ATPase phospholipid transporting 11C gene expression at cytotoxic IC50 measured after 48 hrs relative to control
[5] = Inhibition of RTK/PI3K/AKT/mTOR signaling in human U87 cells assessed as down regulation of KAT2B gene expression at cytotoxic IC50 measured after 48 hrs relative to control
[6] = Inhibition of RTK/PI3K/AKT/mTOR signaling in human U87 cells assessed as down regulation of HELZ2 gene expression at cytotoxic IC50 measured after 48 hrs relative to control
[7] = Inhibition of RTK/PI3K/AKT/mTOR signaling in human U87 cells assessed as up regulation of serine/threonine kinase 36 gene expression at cytotoxic IC50 measured after 48 hrs relative to control
[8] = Inhibition of RTK/PI3K/AKT/mTOR signaling in human U87 cells assessed as up regulation of FLRT1 gene expression at cytotoxic IC50 measured after 48 hrs relative to control
[9] = Inhibition of RTK/PI3K/AKT/mTOR signaling in human U87 cells assessed as down regulation of SACS gene expression at cytotoxic IC50 measured after 48 hrs relative to control
[10] = Inhibition of RTK/PI3K/AKT/mTOR signaling in human U87 cells assessed as down regulation of DNAJB1 gene expression at cytotoxic IC50 measured after 48 hrs relative to control
[11] = Inhibition of RTK/PI3K/AKT/mTOR signaling in human U87 cells assessed as up regulation of adenosine deaminase, tRNA specific 2 gene expression at cytotoxic IC50 measured after 48 hrs relative to control
[12] = Inhibition of RTK/PI3K/AKT/mTOR signaling in human U87 cells assessed as down regulation of SUSD6 gene expression at cytotoxic IC50 measured after 48 hrs relative to control
[13] = Inhibition of RTK/PI3K/AKT/mTOR signaling in human U87 cells assessed as up regulation of solute carrier family 20 member 2 gene expression at cytotoxic IC50 measured after 48 hrs relative to control
[14] = Inhibition of RTK/PI3K/AKT/mTOR signaling in human U87 cells assessed as up regulation of anaphase promoting complex subunit 16 gene expression at cytotoxic IC50 measured after 48 hrs relative to control
[15] = Inhibition of RTK/PI3K/AKT/mTOR signaling in human U87 cells assessed as up regulation of zinc finger protein 827 gene expression at cytotoxic IC50 measured after 48 hrs relative to control
[16] = Inhibition of RTK/PI3K/AKT/mTOR signaling in human U87 cells assessed as down regulation of MAPK1 gene expression at cytotoxic IC50 measured after 48 hrs relative to control
[17] = Inhibition of RTK/PI3K/AKT/mTOR signaling in human U87 cells assessed as up regulation of transmembrane protein 63C gene expression at cytotoxic IC50 measured after 48 hrs relative to control
[18] = Inhibition of RTK/PI3K/AKT/mTOR signaling in human U87 cells assessed as up regulation of RPL15 gene expression at cytotoxic IC50 measured after 48 hrs relative to control
[19] = Inhibition of RTK/PI3K/AKT/mTOR signaling in human U87 cells assessed as down regulation of IL1R1 gene expression at cytotoxic IC50 measured after 48 hrs relative to control
[20] = Inhibition of RTK/PI3K/AKT/mTOR signaling in human U87 cells assessed as down regulation of FBXL5 gene expression at cytotoxic IC50 measured after 48 hrs relative to control
[21] = Inhibition of RTK/PI3K/AKT/mTOR signaling in human U87 cells assessed as up regulation of B3GALT6 gene expression at cytotoxic IC50 measured after 48 hrs relative to control
[22] = Inhibition of RTK/PI3K/AKT/mTOR signaling in human U87 cells assessed as up regulation of trafficking protein particle complex 6A gene expression at cytotoxic IC50 measured after 48 hrs relative to control
[23] = Inhibition of RTK/PI3K/AKT/mTOR signaling in human U87 cells assessed as up regulation of transcriptional regulating factor 1 gene expression at cytotoxic IC50 measured after 48 hrs relative to control
[24] = Inhibition of RTK/PI3K/AKT/mTOR signaling in human U87 cells assessed as up regulation of PLAU gene expression at cytotoxic IC50 measured after 48 hrs relative to control
[25] = Inhibition of RTK/PI3K/AKT/mTOR signaling in human U87 cells assessed as up regulation of lamin B receptor gene expression at cytotoxic IC50 measured after 48 hrs relative to control
[26] = Inhibition of RTK/PI3K/AKT/mTOR signaling in human U87 cells assessed as down regulation of FRS2 gene expression at cytotoxic IC50 measured after 48 hrs relative to control
[27] = Inhibition of RTK/PI3K/AKT/mTOR signaling in human U87 cells assessed as down regulation of LHFP gene expression at cytotoxic IC50 measured after 48 hrs relative to control
[28] = Inhibition of RTK/PI3K/AKT/mTOR signaling in human U87 cells assessed as down regulation of OAZ1 gene expression at cytotoxic IC50 measured after 48 hrs relative to control
[29] = Inhibition of RTK/PI3K/AKT/mTOR signaling in human U87 cells assessed as down regulation of CIZ1 gene expression at cytotoxic IC50 measured after 48 hrs relative to control
[30] = Inhibition of RTK/PI3K/AKT/mTOR signaling in human U87 cells assessed as up regulation of NKX1-2 gene expression at cytotoxic IC50 measured after 48 hrs relative to control
[31] = Inhibition of RTK/PI3K/AKT/mTOR signaling in human U87 cells assessed as down regulation of PDCD10 gene expression at cytotoxic IC50 measured after 48 hrs relative to control
[32] = Inhibition of RTK/PI3K/AKT/mTOR signaling in human U87 cells assessed as down regulation of SPAG1 gene expression at cytotoxic IC50 measured after 48 hrs relative to control

Question: Which log2FC [1] does the source give for CC(=O)C(=NNc1ccccc1C#N)C(C)=O here?
Answer: Its log2FC is -2.07.

Question: What about the log2FC [2] of the same molecule?
Answer: Its log2FC is -1.76.

Question: What about the log2FC [3] of the same molecule?
Answer: Its log2FC is -0.517.

Question: What about the log2FC [4] of the same molecule?
Answer: Its log2FC is 0.878.

Question: And the log2FC [5]?
Answer: The log2FC was -1.71.

Question: What about the log2FC [6] of the same molecule?
Answer: The log2FC was -1.32.

Question: And the log2FC [7]?
Answer: Its log2FC is 1.27.

Question: And the log2FC [8]?
Answer: Its log2FC is 3.04.

Question: What about the log2FC [9] of the same molecule?
Answer: The log2FC was -0.746.

Question: And the log2FC [10]?
Answer: Its log2FC is -1.31.

Question: What about the log2FC [11] of the same molecule?
Answer: The log2FC was 1.3.

Question: What about the log2FC [12] of the same molecule?
Answer: Its log2FC is -1.39.

Question: What about the log2FC [13] of the same molecule?
Answer: The log2FC was 0.779.

Question: What about the log2FC [14] of the same molecule?
Answer: The log2FC was 0.768.

Question: What about the log2FC [15] of the same molecule?
Answer: The log2FC was 1.38.

Question: And the log2FC [16]?
Answer: Its log2FC is -0.5.

Question: What about the log2FC [17] of the same molecule?
Answer: Its log2FC is 1.35.

Question: And the log2FC [18]?
Answer: Its log2FC is 0.574.

Question: What about the log2FC [19] of the same molecule?
Answer: Its log2FC is -1.25.

Question: What about the log2FC [20] of the same molecule?
Answer: The log2FC was -0.784.

Question: What about the log2FC [21] of the same molecule?
Answer: Its log2FC is 1.8.

Question: And the log2FC [22]?
Answer: The log2FC was 1.1.

Question: And the log2FC [23]?
Answer: The log2FC was 1.47.

Question: What about the log2FC [24] of the same molecule?
Answer: The log2FC was 2.38.

Question: And the log2FC [25]?
Answer: The log2FC was 0.757.

Question: And the log2FC [26]?
Answer: Its log2FC is -0.829.

Question: And the log2FC [27]?
Answer: Its log2FC is -3.33.

Question: What about the log2FC [28] of the same molecule?
Answer: Its log2FC is -0.419.

Question: What about the log2FC [29] of the same molecule?
Answer: The log2FC was -0.5.

Question: And the log2FC [30]?
Answer: The log2FC was 1.67.

Question: What about the log2FC [31] of the same molecule?
Answer: Its log2FC is -0.661.

Question: And the log2FC [32]?
Answer: Its log2FC is -3.17.

— ChEMBL document CHEMBL4316593 (Eur J Med Chem, 2019)
